Values quoted from earlier work in patent US20100093662A1, “NOVEL AMPHIPHILIC CYCLODEXTRIN DERIVATIVES” (CENTRE NATIONAL DE LA RECHERCHE SCIENTIFIQUE-CNRS-, priority 2006, published 2010).
Values after ≈ are worked out from the molar mass of the structure shown.

Details: at 25° C.; cited from earlier work

## OC[C@H]1O[C@@H]2O[C@H]3[C@H](O)[C@@H](O)[C@@H](O[C@H]4[C@H](O)[C@@H](O)[C@@H](O[C@H]5[C@H](O)[C@@H](O)[C@@H](O[C@H]6[C@H](O)[C@@H](O)[C@@H](O[C@H]7[C@H](O)[C@@H](O)[C@@H](O[C@H]8[C@H](O)[C@@H](O)[C@@H](O[C@H]1[C@H](O)[C@H]2O)O[C@@H]8CO)O[C@@H]7CO)O[C@@H]6CO)O[C@@H]5CO)O[C@@H]4CO)O[C@@H]3CO [beta-cyclodextrin]
  solubility in water: 15 mM (≈ 17 mg/mL)
